Experimental data from the supplement of paper PMC10849652.
The other results are listed elsewhere or left out.

By UniProt entry, the sequences of proteins in these tests, tags left out. Where a name states a change or a piece, a line headed by the entry shows the natural chain unless it says otherwise.
UniProt O14521: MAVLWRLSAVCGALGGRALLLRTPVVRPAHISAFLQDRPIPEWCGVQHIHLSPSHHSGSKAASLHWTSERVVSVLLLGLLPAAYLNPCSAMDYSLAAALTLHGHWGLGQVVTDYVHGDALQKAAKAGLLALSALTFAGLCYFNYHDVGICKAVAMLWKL
UniProt Q9NRG7: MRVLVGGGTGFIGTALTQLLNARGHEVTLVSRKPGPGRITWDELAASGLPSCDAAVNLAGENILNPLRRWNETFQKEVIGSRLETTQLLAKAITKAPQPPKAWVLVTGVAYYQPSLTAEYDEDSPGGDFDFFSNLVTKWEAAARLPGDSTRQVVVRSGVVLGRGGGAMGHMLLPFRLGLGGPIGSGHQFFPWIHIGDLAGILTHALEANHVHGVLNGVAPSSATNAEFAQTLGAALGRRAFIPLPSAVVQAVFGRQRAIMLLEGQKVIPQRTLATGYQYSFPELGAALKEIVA
UniProt O95969: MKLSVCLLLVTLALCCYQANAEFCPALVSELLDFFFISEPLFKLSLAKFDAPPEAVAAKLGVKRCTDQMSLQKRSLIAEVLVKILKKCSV
UniProt P26447: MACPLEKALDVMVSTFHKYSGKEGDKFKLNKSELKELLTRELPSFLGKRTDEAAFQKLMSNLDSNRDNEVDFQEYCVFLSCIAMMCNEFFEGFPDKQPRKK
UniProt P29034: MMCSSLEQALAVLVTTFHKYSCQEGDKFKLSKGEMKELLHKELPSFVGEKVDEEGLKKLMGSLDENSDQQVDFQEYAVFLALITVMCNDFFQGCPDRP
UniProt O95104: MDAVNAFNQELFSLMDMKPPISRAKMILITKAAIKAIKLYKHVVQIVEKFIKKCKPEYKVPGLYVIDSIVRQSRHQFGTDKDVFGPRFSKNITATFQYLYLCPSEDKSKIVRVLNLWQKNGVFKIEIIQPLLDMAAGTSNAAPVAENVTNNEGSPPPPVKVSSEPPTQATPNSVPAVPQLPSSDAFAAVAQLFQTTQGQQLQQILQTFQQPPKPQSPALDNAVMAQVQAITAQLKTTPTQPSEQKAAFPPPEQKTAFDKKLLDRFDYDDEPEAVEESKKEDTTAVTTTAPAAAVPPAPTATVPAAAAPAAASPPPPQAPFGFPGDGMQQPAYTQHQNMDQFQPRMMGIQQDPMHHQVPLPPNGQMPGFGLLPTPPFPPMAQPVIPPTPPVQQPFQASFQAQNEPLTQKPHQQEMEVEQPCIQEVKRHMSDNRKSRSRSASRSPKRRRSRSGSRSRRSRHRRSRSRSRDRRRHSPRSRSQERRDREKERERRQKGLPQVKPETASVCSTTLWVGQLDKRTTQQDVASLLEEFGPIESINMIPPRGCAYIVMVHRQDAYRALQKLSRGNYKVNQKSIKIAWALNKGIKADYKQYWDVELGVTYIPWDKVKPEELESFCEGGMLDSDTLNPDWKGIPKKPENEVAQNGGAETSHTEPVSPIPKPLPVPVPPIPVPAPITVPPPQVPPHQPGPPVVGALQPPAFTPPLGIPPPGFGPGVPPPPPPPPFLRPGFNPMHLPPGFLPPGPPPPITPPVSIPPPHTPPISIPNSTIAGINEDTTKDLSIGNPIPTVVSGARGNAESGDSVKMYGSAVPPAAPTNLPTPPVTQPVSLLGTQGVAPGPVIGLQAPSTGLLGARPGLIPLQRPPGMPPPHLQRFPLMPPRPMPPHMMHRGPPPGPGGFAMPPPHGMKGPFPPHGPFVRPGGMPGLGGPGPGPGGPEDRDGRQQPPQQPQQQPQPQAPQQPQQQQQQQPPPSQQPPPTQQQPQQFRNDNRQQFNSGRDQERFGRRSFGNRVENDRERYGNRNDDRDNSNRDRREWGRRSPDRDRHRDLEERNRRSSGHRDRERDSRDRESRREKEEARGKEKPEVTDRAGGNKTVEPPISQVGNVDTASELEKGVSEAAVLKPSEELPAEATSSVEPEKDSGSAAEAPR
UniProt Q9HCY8: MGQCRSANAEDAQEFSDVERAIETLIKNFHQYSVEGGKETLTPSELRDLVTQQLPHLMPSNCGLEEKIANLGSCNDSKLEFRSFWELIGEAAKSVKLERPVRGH
UniProt Q96EU6: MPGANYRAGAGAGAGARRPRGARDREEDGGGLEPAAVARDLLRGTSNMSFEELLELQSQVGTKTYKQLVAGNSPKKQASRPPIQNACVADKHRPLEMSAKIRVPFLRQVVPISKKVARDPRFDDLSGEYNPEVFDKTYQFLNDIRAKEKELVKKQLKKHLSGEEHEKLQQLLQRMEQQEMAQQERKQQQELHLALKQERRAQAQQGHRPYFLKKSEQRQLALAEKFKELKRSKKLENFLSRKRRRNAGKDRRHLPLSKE
UniProt Q8IZE3: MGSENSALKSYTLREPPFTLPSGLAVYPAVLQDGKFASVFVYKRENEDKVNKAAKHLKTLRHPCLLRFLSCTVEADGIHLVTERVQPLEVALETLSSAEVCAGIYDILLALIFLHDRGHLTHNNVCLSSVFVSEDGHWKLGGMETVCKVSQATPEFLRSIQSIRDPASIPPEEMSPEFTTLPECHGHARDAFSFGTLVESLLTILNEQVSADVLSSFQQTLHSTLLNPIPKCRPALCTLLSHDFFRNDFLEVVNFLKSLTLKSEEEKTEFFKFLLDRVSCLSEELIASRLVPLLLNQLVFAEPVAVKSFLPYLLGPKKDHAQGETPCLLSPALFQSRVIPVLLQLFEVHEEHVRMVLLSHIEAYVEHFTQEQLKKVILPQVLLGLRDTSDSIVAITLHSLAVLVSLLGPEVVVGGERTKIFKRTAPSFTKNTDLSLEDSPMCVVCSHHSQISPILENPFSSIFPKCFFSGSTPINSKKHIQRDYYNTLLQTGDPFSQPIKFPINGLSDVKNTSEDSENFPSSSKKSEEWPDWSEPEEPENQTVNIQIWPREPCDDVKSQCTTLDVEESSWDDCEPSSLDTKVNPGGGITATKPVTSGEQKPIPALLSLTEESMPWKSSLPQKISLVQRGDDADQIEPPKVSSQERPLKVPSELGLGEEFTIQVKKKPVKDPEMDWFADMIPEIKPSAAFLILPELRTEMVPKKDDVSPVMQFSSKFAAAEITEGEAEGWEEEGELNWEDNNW
UniProt Q9BY42: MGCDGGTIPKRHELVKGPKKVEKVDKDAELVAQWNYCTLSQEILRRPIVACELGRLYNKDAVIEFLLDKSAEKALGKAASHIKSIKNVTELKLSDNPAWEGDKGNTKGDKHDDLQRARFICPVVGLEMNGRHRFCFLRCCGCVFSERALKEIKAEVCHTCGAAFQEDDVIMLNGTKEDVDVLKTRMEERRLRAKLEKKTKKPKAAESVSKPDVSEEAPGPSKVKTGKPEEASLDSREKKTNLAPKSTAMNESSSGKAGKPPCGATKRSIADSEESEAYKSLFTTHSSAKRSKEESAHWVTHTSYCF
UniProt Q86SQ7: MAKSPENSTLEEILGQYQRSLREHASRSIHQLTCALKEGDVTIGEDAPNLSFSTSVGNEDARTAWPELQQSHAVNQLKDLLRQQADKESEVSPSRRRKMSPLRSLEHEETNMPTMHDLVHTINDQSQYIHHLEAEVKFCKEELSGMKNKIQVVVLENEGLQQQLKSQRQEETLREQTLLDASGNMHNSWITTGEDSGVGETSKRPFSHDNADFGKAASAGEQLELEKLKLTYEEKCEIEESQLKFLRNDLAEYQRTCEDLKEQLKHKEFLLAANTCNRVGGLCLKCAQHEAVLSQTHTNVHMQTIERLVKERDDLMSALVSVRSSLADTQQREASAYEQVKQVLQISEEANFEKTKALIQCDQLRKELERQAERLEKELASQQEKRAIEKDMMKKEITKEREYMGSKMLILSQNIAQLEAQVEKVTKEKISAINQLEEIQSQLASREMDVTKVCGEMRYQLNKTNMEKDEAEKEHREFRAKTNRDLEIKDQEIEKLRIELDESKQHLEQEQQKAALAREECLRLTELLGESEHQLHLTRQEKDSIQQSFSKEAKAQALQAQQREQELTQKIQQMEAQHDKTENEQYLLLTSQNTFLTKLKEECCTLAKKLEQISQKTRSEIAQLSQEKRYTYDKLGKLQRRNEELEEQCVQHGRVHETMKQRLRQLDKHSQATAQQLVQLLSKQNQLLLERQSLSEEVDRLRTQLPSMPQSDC
UniProt Q5VUM1: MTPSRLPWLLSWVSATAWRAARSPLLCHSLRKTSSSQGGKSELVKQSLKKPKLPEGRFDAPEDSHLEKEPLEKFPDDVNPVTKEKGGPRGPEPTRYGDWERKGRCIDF
UniProt Q96IW7: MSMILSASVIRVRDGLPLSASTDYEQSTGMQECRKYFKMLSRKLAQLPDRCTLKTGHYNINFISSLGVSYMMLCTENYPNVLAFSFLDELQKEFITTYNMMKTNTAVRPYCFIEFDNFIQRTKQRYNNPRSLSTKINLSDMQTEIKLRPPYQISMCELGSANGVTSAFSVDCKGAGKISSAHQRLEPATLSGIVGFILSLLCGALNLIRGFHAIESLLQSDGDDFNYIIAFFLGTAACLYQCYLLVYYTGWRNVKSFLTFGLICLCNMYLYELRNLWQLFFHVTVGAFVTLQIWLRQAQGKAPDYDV
UniProt Q96T23: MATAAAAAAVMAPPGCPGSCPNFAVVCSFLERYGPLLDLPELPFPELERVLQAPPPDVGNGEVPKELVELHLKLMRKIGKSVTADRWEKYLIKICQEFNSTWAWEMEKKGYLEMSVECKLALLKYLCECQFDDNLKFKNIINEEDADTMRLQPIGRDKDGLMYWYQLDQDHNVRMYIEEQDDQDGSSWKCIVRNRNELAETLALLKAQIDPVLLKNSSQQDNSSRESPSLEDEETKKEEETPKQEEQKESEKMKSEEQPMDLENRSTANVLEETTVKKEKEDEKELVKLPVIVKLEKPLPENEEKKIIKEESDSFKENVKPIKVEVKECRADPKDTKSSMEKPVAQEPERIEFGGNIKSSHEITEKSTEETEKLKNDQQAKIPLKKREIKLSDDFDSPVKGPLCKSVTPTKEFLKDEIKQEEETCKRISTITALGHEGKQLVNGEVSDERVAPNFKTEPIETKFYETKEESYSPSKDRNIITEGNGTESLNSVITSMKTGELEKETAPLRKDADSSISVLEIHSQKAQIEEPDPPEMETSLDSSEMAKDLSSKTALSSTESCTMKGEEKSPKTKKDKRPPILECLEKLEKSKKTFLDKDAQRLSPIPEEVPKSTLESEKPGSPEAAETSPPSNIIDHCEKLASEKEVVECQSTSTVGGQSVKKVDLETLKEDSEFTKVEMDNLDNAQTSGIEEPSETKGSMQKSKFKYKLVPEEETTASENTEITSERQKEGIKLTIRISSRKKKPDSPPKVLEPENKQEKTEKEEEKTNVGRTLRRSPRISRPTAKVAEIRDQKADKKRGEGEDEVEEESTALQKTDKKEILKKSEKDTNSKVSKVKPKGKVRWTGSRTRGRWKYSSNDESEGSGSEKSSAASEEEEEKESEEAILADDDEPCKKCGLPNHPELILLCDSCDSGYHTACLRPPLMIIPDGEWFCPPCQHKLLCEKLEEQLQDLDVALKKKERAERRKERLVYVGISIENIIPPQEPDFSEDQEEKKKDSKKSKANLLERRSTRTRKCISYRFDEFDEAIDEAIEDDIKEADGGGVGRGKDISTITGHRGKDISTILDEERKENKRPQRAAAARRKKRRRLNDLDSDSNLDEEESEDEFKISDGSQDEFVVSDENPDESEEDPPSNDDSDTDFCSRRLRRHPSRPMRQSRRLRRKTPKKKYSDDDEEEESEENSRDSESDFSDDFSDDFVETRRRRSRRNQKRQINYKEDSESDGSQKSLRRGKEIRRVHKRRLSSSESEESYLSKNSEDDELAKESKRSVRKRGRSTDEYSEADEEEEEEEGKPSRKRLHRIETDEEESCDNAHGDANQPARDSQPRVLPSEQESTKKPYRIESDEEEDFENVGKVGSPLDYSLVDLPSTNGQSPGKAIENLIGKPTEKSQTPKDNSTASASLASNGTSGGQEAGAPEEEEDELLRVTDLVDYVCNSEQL
UniProt Q5PRF9: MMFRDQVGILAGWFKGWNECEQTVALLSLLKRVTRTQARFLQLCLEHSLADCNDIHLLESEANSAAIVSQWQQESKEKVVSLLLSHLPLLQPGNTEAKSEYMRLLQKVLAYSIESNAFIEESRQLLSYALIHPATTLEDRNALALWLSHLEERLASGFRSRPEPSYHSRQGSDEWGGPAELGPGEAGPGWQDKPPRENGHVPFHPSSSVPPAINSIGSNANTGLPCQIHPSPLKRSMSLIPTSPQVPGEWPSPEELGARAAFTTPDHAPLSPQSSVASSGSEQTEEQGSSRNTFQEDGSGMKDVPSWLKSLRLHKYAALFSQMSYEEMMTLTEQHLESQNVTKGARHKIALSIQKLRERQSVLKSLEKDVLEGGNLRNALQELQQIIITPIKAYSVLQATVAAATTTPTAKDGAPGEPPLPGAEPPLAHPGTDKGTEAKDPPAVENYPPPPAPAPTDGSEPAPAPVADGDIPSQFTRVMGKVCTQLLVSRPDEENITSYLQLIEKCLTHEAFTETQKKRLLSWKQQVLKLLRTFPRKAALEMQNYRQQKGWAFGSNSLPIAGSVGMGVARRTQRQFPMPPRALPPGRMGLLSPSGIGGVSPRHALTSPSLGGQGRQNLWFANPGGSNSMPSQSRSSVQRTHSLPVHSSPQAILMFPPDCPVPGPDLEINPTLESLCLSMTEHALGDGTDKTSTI

These targets were tested with CC1=C(C(CC(=O)N1)C2=CC=C(C=C2)C(F)(F)F)C(=O)NC3=C(C=C4C(=C3)C=NN4)F (assay: log2 fold change, soluble protein after heating vs DMSO (PISA); higher = thermal stabilisation; K562 cells, 10 uM, 30 min; active = over 0.2 and 3.5 SD of the protein, either way, in both replicates (recomputed)).
How it was run: (§1)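 For each measurement, 10 μM compound was applied for 30 min to K562 cells at 2×10^6 cells/mL. Aliquots were heated for 3 min across 48°C-58°C, pooled, and extracted in PBS with 0.5% NP-40 at 4°C; the supernatant after 21,000xg for 90 min was soluble protein. This was quantified by TMTpro 16plex LC-MS/MS with channel sums equalised, and thermal stability was reported relative to control samples from duplicates, on a log2 fold-change scale.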

Target | log2 fold change
SDHD (UniProt O14521) | inactive: 0.041
SDHB, A0A087WXX8 | inactive: 0.141
SDR39U1 (UniProt Q9NRG7) | inactive: -0.163
SCGB1D2 (UniProt O95969) | inactive: -0.5
S100A4 (UniProt P26447) | inactive: -0.077
S100A2 (UniProt P29034) | inactive: -0.76
SCAF4 (UniProt O95104) | inactive: -0.002
S100A14 (UniProt Q9HCY8) | inactive: -0.529
SC5D (UniProt O75845) | inactive: 0.032
RSL24D1 (UniProt Q9UHA3) | inactive: -0.018
RTN4 isoform 5 (UniProt Q9NQC3) | inactive: -0.094

These targets were tested with CC1=C(C2=C(C=C1)C(=O)C3=CC=CC=C3N2CCCN)C in the same assay as above.
How it was run: as §1

Target | log2 fold change
RRP36 (UniProt Q96EU6) | active: -0.785
SCAMP2 (UniProt H3BUB6) | inactive: 0.059
SDHD (UniProt O14521) | inactive: 0.05
SCG3 (UniProt Q8WXD2) | inactive: -0.359
SCYL3 isoform 2 (UniProt Q8IZE3) | inactive: -0.146
SCAMP2 (UniProt O15127) | inactive: -0.066
SDR39U1 (UniProt Q9NRG7) | inactive: 0.094
RTF2 (UniProt Q9BY42) | inactive: -0.054
SDCCAG8 (UniProt Q86SQ7) | inactive: -0.039
SDHAF4 (UniProt Q5VUM1) | inactive: 0.021
RSRC2 (UniProt Q7L4I2) | inactive: 0.016
SCGB1D2 (UniProt O95969) | inactive: 0.786
SEC22A (UniProt Q96IW7) | inactive: -0.027
SACM1L (UniProt Q9NTJ5) | inactive: 0.029
RSF1 (UniProt Q96T23) | active: -1.48
SAMD4B (UniProt Q5PRF9) | inactive: 0.039
S100A2 (UniProt P29034) | inactive: 0.115
SCAF4 (UniProt O95104) | inactive: 0.104
RSPRY1 (UniProt Q96DX4) | inactive: -0.066
S100A14 (UniProt Q9HCY8) | inactive: 0.836
SC5D (UniProt O75845) | inactive: 0.154
RSL24D1 (UniProt Q9UHA3) | inactive: -0.273
SDHAF2 (UniProt Q9NX18) | inactive: -0.01
RUFY3 isoform 3 (UniProt Q7L099) | inactive: 0.044
RTN4 isoform 5 (UniProt Q9NQC3) | inactive: 0.023
